Measurements reported in PMC8569681, “New Pyrimidine and Pyridine Derivatives as Multitarget Cholinesterase Inhibitors: Design, Synthesis, and In Vitro and In Cellulo Evaluation” (ACS Chemical Neuroscience, 2021).
“Also recorded” adds a separate entry of the source.

Experiments:
Format in all cases: physicochemical
[1] = Chelation of Fe^3+, UV–vis titration and Job's plot; settings: Job's plot; for X1, mole fraction of ligand causing maximum variation of absorbance / n1, number of ligand molecules per cation: first complex; for X2, mole fraction of ligand / n2, number of ligand molecules per cation: second complex; for X, mole fraction of ligand causing maximum variation of absorbance / n, number of ligand molecules per cation: MeOH
[2] = Chelation of Cu^2+, UV–vis titration and Job's plot; settings: Job's plot, MeOH
[3] = Chelation of Zn^2+, UV–vis spectra; settings: UV–vis spectrum, excess of metal

| Structure (SMILES) | X1, mole fraction of ligand causing maximum variation of absorbance [1] | n1, number of ligand molecules per cation [1] | X2, mole fraction of ligand [1] | n2, number of ligand molecules per cation [1] | X, mole fraction of ligand causing maximum variation of absorbance [2] | n, number of ligand molecules per cation [2] | ability to chelate Zn^2+ [3] | X, mole fraction of ligand causing maximum variation of absorbance [1] | n, number of ligand molecules per cation [1] |
| --- | --- | --- | --- | --- | --- | --- | --- | --- | --- |
| COc1cc(CNCCCCCCNc2ccccn2)ccc1O [Compound 30, 2-Methoxy-4-(((6-(pyridin-2-ylamino)hexyl)amino)methyl)phenol] | X1 = 0.53 | n1 = 1 | X2 = 0.74 | n2 = 3 | 0.50 | 1 | – | – | – |
| Oc1cccc(CNCCCCCCNc2ncccn2)c1O [Compound 20, 3-(((6-(Pyrimidin-2-ylamino)hexyl)amino)methyl)benzene-1,2-diol] | X1 = 0.53 | n1 = 1 | X2 = 0.80 | n2 = 4 | 0.53 | 1 | chelating capacity; also recorded: chelating ability | – | – |
| Oc1cccc(CNCCCCCCNc2ncccn2)c1 [Compound 19, 3-(((6-(Pyrimidin-2-ylamino)hexyl)amino)methyl)phenol] | – | – | – | – | 0.51 | 1 | – | 0.68 | 2 |
| c1ccc(CNCCCCCCNc2ccccn2)cc1 [Compound 25, N^1-Benzyl-N^6-(pyridin-2-yl)hexane-1,6-diamine] | – | – | – | – | 0.44 | 1 | – | – | – |
| COc1cc(CNCCCCCCNc2ncccn2)ccc1O [Compound 18, 2-Methoxy-4-(((6-(pyrimidin-2-ylamino)hexyl)amino)methyl)phenol] | – | – | – | – | 0.70 | 2 | – | 0.69 | 2 |
| COc1ccccc1CNCCCCCCNc1ccccn1 [Compound 28, N^1-(2-Methoxybenzyl)-N^6-(pyridin-2-yl)hexane-1,6-diamine] | X1 = 0.53 | n1 = 1 | X2 = 0.74 | n2 = 3 | 0.53 | 1 | – | – | – |
